Reference: US20050037969A1
No constants are given. Whether binding was seen depends on the method and setting. For some of these results: In cells and extracts the contact can be indirect. Some binding calls cover weakened binding; strength is not graded here. For some of these results: Sequences can lack the tags named with a protein.

By UniProt entry, the sequences of proteins in these tests, tags left out. Where a name states a change or a piece, a line headed by the entry shows the natural chain unless it says otherwise.
UniProt Q6P0Q8: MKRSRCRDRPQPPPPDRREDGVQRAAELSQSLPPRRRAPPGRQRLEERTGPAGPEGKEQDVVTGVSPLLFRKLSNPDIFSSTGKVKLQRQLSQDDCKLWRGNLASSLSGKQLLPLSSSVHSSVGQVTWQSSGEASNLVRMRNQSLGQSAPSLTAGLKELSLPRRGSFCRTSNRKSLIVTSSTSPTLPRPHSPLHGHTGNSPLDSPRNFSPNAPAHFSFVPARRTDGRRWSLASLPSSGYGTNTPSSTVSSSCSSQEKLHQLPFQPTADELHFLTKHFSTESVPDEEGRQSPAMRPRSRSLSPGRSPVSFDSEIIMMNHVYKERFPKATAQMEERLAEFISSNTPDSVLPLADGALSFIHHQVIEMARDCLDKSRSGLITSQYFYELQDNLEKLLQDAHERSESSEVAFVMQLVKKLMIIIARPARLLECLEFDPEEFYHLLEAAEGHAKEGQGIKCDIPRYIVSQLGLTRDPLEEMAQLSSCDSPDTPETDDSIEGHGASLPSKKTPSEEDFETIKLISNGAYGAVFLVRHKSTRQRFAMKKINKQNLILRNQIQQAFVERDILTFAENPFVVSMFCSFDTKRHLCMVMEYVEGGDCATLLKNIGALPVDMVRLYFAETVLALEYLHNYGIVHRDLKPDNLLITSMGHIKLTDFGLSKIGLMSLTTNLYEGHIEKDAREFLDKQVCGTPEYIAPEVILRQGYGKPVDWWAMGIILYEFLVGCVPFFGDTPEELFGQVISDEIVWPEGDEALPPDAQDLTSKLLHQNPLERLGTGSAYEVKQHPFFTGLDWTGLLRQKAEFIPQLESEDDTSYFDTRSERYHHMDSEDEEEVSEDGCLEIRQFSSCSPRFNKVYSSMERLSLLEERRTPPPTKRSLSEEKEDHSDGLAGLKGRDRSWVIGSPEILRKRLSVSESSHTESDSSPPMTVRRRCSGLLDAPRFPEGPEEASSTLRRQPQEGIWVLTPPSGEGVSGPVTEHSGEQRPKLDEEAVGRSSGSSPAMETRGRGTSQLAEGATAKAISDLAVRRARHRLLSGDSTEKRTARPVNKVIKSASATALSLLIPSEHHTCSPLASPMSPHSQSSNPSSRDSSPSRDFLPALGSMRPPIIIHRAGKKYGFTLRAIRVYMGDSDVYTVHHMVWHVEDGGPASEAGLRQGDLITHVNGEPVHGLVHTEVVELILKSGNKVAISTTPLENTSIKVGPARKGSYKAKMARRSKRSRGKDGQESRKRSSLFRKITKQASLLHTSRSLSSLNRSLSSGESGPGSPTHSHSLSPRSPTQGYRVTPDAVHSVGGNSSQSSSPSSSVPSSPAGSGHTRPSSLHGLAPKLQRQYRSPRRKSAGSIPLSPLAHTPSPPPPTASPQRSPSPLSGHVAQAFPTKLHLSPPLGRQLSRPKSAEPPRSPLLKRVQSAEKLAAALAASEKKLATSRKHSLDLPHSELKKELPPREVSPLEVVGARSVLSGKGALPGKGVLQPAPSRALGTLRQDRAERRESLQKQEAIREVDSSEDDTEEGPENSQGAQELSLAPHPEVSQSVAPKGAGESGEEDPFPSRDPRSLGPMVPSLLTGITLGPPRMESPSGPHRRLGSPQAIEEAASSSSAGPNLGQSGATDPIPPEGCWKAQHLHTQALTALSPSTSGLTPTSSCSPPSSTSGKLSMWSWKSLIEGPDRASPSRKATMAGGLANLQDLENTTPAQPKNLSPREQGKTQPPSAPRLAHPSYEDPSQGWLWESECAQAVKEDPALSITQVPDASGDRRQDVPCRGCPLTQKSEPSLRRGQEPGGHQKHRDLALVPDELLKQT
UniProt Q14005: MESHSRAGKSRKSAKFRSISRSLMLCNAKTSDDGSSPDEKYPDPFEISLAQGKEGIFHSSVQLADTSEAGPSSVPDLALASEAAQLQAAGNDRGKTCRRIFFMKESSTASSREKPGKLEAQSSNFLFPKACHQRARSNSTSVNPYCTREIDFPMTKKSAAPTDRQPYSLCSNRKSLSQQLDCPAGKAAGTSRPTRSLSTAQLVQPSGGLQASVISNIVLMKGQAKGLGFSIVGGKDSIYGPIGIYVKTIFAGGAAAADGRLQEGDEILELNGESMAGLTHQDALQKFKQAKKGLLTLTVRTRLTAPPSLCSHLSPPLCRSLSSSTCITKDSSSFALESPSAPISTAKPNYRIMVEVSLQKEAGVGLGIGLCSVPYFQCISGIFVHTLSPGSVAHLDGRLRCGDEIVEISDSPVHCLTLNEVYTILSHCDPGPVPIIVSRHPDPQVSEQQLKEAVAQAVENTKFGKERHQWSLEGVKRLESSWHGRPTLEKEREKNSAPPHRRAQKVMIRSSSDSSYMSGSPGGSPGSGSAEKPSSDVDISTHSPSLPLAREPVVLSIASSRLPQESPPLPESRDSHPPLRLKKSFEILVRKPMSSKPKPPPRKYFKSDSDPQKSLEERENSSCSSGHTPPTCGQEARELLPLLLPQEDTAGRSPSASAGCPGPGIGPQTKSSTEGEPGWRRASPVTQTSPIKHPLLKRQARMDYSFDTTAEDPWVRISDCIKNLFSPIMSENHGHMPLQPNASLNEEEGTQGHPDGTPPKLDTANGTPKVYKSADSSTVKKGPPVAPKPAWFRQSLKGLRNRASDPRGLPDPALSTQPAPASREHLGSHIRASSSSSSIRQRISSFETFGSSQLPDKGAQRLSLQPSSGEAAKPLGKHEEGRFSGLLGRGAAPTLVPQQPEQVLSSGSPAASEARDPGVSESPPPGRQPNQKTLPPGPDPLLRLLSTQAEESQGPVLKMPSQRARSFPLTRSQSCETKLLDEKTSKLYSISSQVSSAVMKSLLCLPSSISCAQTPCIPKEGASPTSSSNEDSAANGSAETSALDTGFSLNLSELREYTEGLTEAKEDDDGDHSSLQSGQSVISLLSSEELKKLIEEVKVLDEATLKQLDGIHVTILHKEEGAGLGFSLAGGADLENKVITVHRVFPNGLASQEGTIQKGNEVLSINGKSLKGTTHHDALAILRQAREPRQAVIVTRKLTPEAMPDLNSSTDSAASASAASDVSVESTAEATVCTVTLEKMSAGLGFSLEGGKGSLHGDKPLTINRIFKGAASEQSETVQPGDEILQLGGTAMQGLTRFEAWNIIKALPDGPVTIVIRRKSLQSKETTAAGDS

T1: GST-MPP1 PDZ domain fusion protein (Homo sapiens (Human)) (UniProt Q00013)
T1 sequence: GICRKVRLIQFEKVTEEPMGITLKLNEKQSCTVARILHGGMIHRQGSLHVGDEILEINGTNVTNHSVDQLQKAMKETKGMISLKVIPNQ

T2: GST-PDZK1 fusion protein (PDZ domains 2-4) (Homo sapiens) (UniProt Q5T2W1)
T2 sequence: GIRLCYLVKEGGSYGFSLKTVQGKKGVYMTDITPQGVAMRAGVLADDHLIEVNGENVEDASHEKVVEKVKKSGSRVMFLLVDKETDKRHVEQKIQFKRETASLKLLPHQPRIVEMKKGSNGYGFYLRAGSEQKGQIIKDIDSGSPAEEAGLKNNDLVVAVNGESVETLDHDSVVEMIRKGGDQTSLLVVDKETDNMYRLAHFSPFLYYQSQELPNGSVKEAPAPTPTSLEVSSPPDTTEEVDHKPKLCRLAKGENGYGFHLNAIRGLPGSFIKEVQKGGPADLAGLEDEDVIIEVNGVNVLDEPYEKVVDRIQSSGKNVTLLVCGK

T3: GST-AF6 PDZ domain fusion protein (Homo sapiens (Human)) (UniProt P55196)
T3 sequence: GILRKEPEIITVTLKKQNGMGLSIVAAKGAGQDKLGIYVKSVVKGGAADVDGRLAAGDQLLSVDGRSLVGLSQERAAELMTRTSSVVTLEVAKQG

T4: GST-41.8 kD protein (KIAA0751) PDZ domain fusion protein (Mus musculus (Mouse)) (UniProt Q9EQZ7)
T4 sequence: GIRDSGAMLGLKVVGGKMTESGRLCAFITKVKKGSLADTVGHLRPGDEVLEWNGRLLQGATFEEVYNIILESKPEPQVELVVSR

T5: TIP1-RFP fusion protein (Homo sapiens) (UniProt O14907)
T5 sequence: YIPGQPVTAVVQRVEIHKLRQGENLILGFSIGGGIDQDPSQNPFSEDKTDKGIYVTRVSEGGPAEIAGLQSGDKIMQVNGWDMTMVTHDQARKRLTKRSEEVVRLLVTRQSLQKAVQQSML


Columns and labels:
[1] = target: T1, GST-MPP1 PDZ domain fusion protein (Homo sapiens (Human)); experiment: A/G assays, told in text
[2] = target: T1, GST-MPP1 PDZ domain fusion protein (Homo sapiens (Human)); experiment: A/G plate assays, Table 2 matrix
[3] = target: KIAA0807 (PDZ domain)-GST fusion protein (human) (UniProt Q6P0Q8); experiment: A/G assays, told in text
[4] = target: GST-PSD95 fusion protein (PDZ domains 1-3) (human); experiment: A/G assays, told in text
[5] = target: KIAA0807 (PDZ domain)-GST fusion protein (human) (UniProt Q6P0Q8); experiment: A/G plate assays, Table 2 matrix
[6] = target: GST-PSD95 fusion protein (PDZ domains 1-3) (human); experiment: A/G plate assays, Table 2 matrix
[7] = target: GST-prIL16 fusion protein (PDZ domains 1-2) (Homo sapiens (Human)) (UniProt Q14005); experiment: A/G assays, told in text
[8] = target: GST-prIL16 fusion protein (PDZ domains 1-2) (Homo sapiens (Human)) (UniProt Q14005); experiment: A/G plate assays, Table 2 matrix
[9] = target: T2, GST-PDZK1 fusion protein (PDZ domains 2-4) (Homo sapiens); experiment: A/G assays, told in text
[10] = target: T2, GST-PDZK1 fusion protein (PDZ domains 2-4) (Homo sapiens); experiment: A/G plate assays, Table 2 matrix
[11] = target: T3, GST-AF6 PDZ domain fusion protein (Homo sapiens (Human)); experiment: A/G assays, told in text
[12] = target: T4, GST-41.8 kD protein (KIAA0751) PDZ domain fusion protein (Mus musculus (Mouse)); experiment: A/G assays, told in text
[13] = target: T3, GST-AF6 PDZ domain fusion protein (Homo sapiens (Human)); experiment: A/G plate assays, Table 2 matrix
[14] = target: T4, GST-41.8 kD protein (KIAA0751) PDZ domain fusion protein (Mus musculus (Mouse)); experiment: A/G plate assays, Table 2 matrix
[15] = target: T5, TIP1-RFP fusion protein (Homo sapiens); experiment: pull-down with biotinylated peptide from cell lysate
[16] = target: GST-PSD95 fusion protein (PDZ domains 1-3) (human); experiment: G assay: biotinylated peptide on plate-bound GST-PDZ fusion, streptavidin-HRP, OD 450 nm

Binder | binding [1] | binding [2] | binding [4] | binding [6] | further results
ARKANMKGSYSLVEAQKSKV (biotin at the amino-terminus) [VCAM1 C-terminal peptide AA17L, biotinylated] | binds | binds |  |  | 
QFMTADETRNLQNVDMKIGV (biotin at the amino-terminus) [CD44 C-terminal peptide AA9L, biotinylated] | binds | binds |  |  | binding [7]: binds; binding [8]: binds
PSWRRSSLSESENATSLTTF (biotin at the amino-terminus) [BLR-1 C-terminal peptide AA45L, biotinylated] |  |  |  |  | binding [9]: binds; binding [10]: binds
KDITSDSENSNFRNEIQSLV (biotin at the amino-terminus) [CD95 (Fas) C-terminal peptide AA13L, biotinylated] |  |  |  |  | binding [15]: binds
SFPPCGHRENVPGQSLVSFV (biotin at the amino-terminus) [Spectrin (beta) C-terminal peptide AA32L, biotinylated] |  | binds |  |  | 

More lines, main results first:

binding [1] | binding [2] | binding [4] | binding [6] | Binder | further results
binds | binds |  |  | TREDIYVNYPTFSRRPKTRV (biotin at the amino-terminus) [DNAM-1 C-terminal peptide AA22L, biotinylated] | 
 |  | binds | binds | QATSENGHSARQHVVADTEL (biotin at the amino-terminus) [CD34 C-terminal peptide AA7L, biotinylated] | binding [3]: binds; binding [5]: binds
 |  | binds | binds | CAISGTSSDRGYGSPRYAEV (biotin at the amino-terminus) [Clasp-4 C-terminal peptide AA3L, biotinylated] | binding [11]: binds; binding [12]: binds; binding [13]: binds; binding [14]: binds
 |  | binds | binds | ISKATPALPTVSISSSAEV (biotin at the amino-terminus) [Clasp-1 C-terminal peptide AA1L, biotinylated] | binding [16]: binds
